In patent EP4666996A1, “COMPOSITION CONTAINING PEPTIDES OF VEGETABLE ORIGIN” (Quiris Healthcare GmbH & Co. KG, priority 2024, dated 2025):
Part of at least one peptide drawing is inferred or uncertain, most often the ends. Some entries repeat one wording, which the source may state once for all of them. No end group written: not given here.

Key:
ABTS assay = format: biochemical; details: synthesized peptides 1-100 µM; for ABTS radical scavenging activity: compared to control C
Protocol: The ABTS assay is based on the reduction of the 2,2-azino-bis-(3-ethylbenzothiazoline-6-sulfonic acid (ABTS) radical induced by antioxidants. The ABTS radical cation (ABTS+● was prepared by mixing a 7 mM ABTS solution (Sigma-Aldrich, Milan, Italy) with 2.45 mM potassium persulfate (1:1) and stored for 16 h at room temperature and in dark. To prepare the ABTS reagent, the ABTS+● was diluted in 5 mM phosphate buffer (pH 7.4) to obtain a stable absorbance of 0.700 (±0.02) at 730 nm. For the assay, 10 µL of samples were added to 140 µL of diluted the ABTS+● at the following final concentrations: 0.01 and 0.1 mg/mL for pea and rice peptides; 0.1, 1, 10 and 20 mg/mL for collagen peptides; 0.0001, 0.001 and 0.01 mg/mL for ascorbic acid; 1, 10, 25, 50, 100 µM for CR1, CP1 and CP2 peptides. The microplate was incubated for 30 min at 30 °C and the absorbance was read at 730 nm using a Synergy™ HT-multimode microplate reader (Biotek Instruments, Winooski, VT, USA). The TEAC values were calculated using a Trolox (Sigma-Aldrich, Milan, Italy) calibration curve (60-320 µM).
In this example, the antioxidant activity of pea and rice peptides was tested in vitro in an ABTS Assay as described above.
In this example, the antioxidant activity of peptides CP1, CP2 and CR1 (see Table 1 above) was tested in vitro in an ABTS Assay as described above.

FRAP assay = format: biochemical; details: synthesized peptides up to 200 µM; for ferric reducing antioxidant power: compared to control C
Protocol: The FRAP assay evaluates the ability of a sample to reduce ferric ion (Fe3^+) into ferrous ion (Fe2^+). Thus, 10 µL of samples were mixed with 140 µL of FRAP reagent until reaching the following concentrations: 0.01, 0.1 and 1 mg/mL for pea and rice peptides; 1, 10 and 20 mg/mL for collagen peptides; 0.00001, 0.0001, 0.001 and 0.1 mg/mL for ascorbic acid; 10, 100 and 200 µM for CR1 and CP5 peptides; 25, 50, 100 and 200 µM for CP1 and CP2 peptides. The FRAP reagent was prepared by mixing 1.3 mL of a 10 mM TPTZ (Sigma-Aldrich, Milan, Italy) solution in 40 mM HCl, 1.3 mL of 20 mM FeCl3 × 6H2O and 13 mL of 0.3 M acetate buffer (pH 3.6). The microplate was incubated for 30 min at 37 °C and the absorbance was read at 595 nm. The results were calculated by a Trolox (Sigma-Aldrich, Milan, Italy) standard curve obtained using different concentrations (3-400 µM)). Absorbances were recorded on a Synergy™ HT-multimode microplate reader.
In this example, the antioxidant activity of pea and rice peptides was tested in vitro in a FRAP Assay as described above.
In this example, the antioxidant activity of peptides CP1, CP2, CP5 and CR1 was tested in vitro in a FRAP Assay as described above.

Sequence | ABTS radical scavenging activity, dependence on concentration (ABTS assay) | ABTS radical scavenging activity (ABTS assay) | ferric reducing antioxidant power, dependence on concentration (FRAP assay) | ferric reducing antioxidant power (FRAP assay) | ferric reducing antioxidant power compared with CR1 (FRAP assay) | ABTS radical scavenging activity compared with CR1 (ABTS assay)
AEDVGEEVER [CR1, AEDVGEEVER] | decreases with increasing concentration | lower than the one of the control C | increases with increasing concentration | higher than the control C | – | –
SSNNQLDQMPR [CP5, SSNNQLDQMPR] | – | – | increases with increasing concentration | higher than the control C | higher than with CR1 | –
DTSETWAIR [CP1, DTSETWAIR] | decreases with increasing concentration | lower than the one of the control C | increases with increasing concentration | higher than the control C | higher than with CR1 | lower than with CR1
